This passage reports binding results from publication PMC8632809.

Protein sequences, listed by entry. Tags and fused reporters are not part of them.
UniProt O94851: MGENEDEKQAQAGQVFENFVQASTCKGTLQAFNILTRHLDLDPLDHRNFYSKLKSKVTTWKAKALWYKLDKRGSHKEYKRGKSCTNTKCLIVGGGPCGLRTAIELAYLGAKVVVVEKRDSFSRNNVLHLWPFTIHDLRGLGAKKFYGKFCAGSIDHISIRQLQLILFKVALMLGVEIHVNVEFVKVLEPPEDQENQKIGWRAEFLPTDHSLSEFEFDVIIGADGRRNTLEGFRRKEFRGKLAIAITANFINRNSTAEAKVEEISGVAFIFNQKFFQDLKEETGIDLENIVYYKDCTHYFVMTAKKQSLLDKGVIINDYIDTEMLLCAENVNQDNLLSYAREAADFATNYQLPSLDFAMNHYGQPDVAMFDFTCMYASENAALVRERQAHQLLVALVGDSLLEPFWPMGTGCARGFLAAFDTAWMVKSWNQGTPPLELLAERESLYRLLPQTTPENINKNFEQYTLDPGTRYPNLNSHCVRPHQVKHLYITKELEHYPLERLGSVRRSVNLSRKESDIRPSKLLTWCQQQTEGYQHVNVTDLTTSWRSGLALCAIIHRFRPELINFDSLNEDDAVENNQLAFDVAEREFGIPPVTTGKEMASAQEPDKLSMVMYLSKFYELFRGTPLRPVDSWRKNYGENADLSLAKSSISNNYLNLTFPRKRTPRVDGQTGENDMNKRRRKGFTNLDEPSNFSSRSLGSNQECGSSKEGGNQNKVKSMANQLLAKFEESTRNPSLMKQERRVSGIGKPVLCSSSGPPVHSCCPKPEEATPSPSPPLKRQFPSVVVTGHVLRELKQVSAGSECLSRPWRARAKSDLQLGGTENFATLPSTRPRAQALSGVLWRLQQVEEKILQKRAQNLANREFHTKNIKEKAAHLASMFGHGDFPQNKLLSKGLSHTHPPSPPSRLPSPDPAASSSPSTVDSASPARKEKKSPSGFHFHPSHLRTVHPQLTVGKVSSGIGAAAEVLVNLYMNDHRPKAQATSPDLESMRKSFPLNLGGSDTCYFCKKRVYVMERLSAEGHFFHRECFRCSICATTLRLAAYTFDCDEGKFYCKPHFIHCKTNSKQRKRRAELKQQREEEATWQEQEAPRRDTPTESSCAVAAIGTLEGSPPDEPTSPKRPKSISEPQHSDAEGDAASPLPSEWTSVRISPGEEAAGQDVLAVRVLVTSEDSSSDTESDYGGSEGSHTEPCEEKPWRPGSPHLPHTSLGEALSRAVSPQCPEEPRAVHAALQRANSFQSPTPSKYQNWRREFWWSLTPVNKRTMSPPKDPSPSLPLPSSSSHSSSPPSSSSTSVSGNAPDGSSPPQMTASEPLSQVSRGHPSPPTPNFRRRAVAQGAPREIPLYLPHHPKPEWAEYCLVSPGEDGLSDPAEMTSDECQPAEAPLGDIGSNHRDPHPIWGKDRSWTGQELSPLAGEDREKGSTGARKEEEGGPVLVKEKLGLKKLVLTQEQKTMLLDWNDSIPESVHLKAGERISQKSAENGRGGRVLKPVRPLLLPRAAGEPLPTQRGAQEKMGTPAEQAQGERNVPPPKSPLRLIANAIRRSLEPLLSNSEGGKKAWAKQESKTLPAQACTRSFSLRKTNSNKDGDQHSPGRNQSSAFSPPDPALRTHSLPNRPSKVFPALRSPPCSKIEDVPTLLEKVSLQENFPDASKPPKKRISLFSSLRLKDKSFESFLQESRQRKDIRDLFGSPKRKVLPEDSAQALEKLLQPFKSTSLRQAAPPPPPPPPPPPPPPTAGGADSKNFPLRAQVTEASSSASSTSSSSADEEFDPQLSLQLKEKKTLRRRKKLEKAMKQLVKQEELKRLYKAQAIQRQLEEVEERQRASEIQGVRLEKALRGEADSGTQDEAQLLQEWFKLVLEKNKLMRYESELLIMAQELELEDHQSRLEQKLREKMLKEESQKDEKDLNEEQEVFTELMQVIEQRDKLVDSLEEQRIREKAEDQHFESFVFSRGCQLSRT

No constants are given. Whether binding was seen depends on the method and setting. Binding seen in cells or lysates may run through a third protein. Some binding calls cover weakened binding; strength is not graded here.

This test has as its target T1, TGF receptor-type I (TGFRI) (human (endogenous in GBM cells; U87 and U251 lines were used)) (UniProt P36897).
T1 sequence: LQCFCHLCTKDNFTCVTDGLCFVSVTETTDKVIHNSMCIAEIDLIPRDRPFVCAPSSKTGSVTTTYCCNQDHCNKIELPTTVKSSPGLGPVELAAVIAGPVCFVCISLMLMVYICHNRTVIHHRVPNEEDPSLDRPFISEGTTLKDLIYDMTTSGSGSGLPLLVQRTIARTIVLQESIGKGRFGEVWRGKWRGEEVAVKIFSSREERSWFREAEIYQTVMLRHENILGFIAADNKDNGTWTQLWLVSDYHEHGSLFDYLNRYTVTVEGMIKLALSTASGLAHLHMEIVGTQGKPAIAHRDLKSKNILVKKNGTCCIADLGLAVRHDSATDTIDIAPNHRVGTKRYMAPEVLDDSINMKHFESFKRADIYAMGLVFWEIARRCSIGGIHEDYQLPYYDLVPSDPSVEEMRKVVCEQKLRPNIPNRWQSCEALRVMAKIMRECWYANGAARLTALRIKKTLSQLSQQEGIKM
As to the kind of experiment: co-IP; lysates of GBM cells (RIPA lysis buffer with protease and phosphatase inhibitors) immunoprecipitated with anti-MICAL2-agarose or anti-TGFRI-agarose antibodies, anti-IgG as control; Western blot with the indicated antibodies. (In general: A western blot detects proteins with antibodies after separation by electrophoresis.)

Turning to “molecule interacting with CasL2 (MICAL2) (from UniProt O94851 1-1957)”, the binding result is reported as “binds”.
